PubChem BioAssay AID504804 | Drosophila RNAi Screening Center – 2011

Aim: 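dsRNAs that improve Kc cell survival under doxorubicin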 (primary screen)
Cell system: Drosophila Kc cells
Reagent: long dsRNA against Drosophila genes, 0.5 µg dsRNA per well
Time to read-out: 96 h (48 h knock-down, then 48 h drug)
Challenge: doxorubicin 5 µg/ml for 48 h, added 48 h after dsRNA
Measurement: 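Luminescent ATP counts per replicate, not normalised, reflecting viable cells after 48 h dsRNA knock-down followed by 48 h of 5 µg/ml doxorubicin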
Scale: raw ATP luminescence: higher = more viable cells, protection from doxorubicin
Hit rule: 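z-score of 2 or more over plate mean in both duplicates, retained only when retests and separate dsRNAs confirm the protection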
In all, the deposit lists about 19,000 reagents; shown is a random part of those that have a named target and a result. In the full data, 47 (0.25%) were called active. 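Signals are raw, not normalised; exact z-scores behind calls not deposited; actives needed confirmation, so some wells reaching 2 SD are inactive.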 Unmarked entries are inactive. The numbers tell different reagents against one gene apart. A plus sign joins genes that one reagent is predicted to hit.

no.	gene	reagent no.	SD above plate mean	raw ATP luminescence, replicate 1	raw ATP luminescence, replicate 2
1	Use1 (Unconventional SNARE in the ER 1)	1		59703	70927
2	lcs (la costa)	1		2.80e5	2.70e5
3	CG31740	1		2.95e5	2.87e5
4	CG8838	1		98647	69730
5	CG34281	1		1.06e5	83120
6	CG3032	1		42380	48800
7	Rcd1 (Reduction in Cnn dots 1)	1		67420	59180
8	CG15635	1		33560	46523
9	CG13014	1		3.46e5	2.95e5
10	DCP2 (Decapping protein 2)	1		21700	34040
11	Apt1 (Acyl-protein thioesterase 1)	1		63823	47663
12	CG5342	1		50200	50603
13	PH4alphaMP (prolyl-4-hydroxylase-alpha MP)	1		70680	44810
14	Eig71Eh	1		36903	41283
15	Afg3l2 (AFG3 like matrix AAA peptidase subunit 2)	1		24160	27280
16	Ip6k (Inositol hexakisphosphate kinase)	1		56087	82097
17	CG5021	1		80303	82213
18	CG31743 + CG34313	1		1.06e5	73930
19	CG31743 + CG34313	2		67987	73710
20	Klp64D (Kinesin-like protein at 64D)	1		80483	78720
21	CG14024	1		2.85e5	2.55e5
22	CG14024	2		1.15e5	57307
23	Apc2 (Adenomatous polyposis coli 2)	1		44233	62160
24	CG14932	1		19747	39850
25	CG7611	1		21027	19247
26	Nepl13 (Neprilysin-like 13)	1		84970	67190
27	CCAP-R (Crustacean cardioactive peptide receptor)	1	at least 2 SD above plate mean	1.06e5	93550
28	CCAP-R (Crustacean cardioactive peptide receptor)	2		91940	80040
29	CG9123	1		2.57e5	3.03e5
30	chb (chromosome bows)	1		50957	65403
31	CG11672	1		66333	54790
32	PheRS-m (Phenylalanyl-tRNA synthetase, mitochondrial)	1		57223	42953
33	gish (gilgamesh)	1		43810	54320
34	Cul1 (Cullin 1)	1		65990	64493
35	CG5892	1		14530	28940
36	mthl3 (methuselah-like 3)	1		55990	68757
37	CG11373	1		49813	60243
38	Vps20 (Vacuolar protein sorting 20)	1		44913	46923
39	rictor (rapamycin-insensitive companion of Tor)	1		3.25e5	3.16e5
40	ND-13A (NADH dehydrogenase (ubiquinone) 13 kDa A subunit)	1		26593	32980
41	CG5897	1		83047	68620
42	CG14292	1		32010	27160
43	JhI-26 (Juvenile hormone-inducible protein 26)	1		64447	61467
44	unk (unkempt)	1		36413	34163
45	zfh1 (Zn finger homeodomain 1)	1		1.98e5	1.85e5
46	CG13481	1		57573	50603
47	CG12171	1		71577	60210
48	tut (tumorous testis)	1		1.28e5	1.35e5
49	CG6136	1		42723	22923
50	CG13516	1		62803	52753
51	Nepl16 (Neprilysin-like 16)	1		68280	57290
52	Scp2 (Sarcoplasmic calcium-binding protein 2)	1		1.77e5	1.82e5
53	Scp2 (Sarcoplasmic calcium-binding protein 2)	2		1.24e5	64390
54	CG14069	1		61117	84433
55	CG1394	1		2.16e5	2.32e5
56	CG13640	1		58960	62310
57	TotC (Turandot C)	1		1.52e5	1.80e5
58	RhoGAP102A (Rho GTPase activating protein at 102A)	1		2.10e5	1.89e5
59	RhoGAP102A (Rho GTPase activating protein at 102A)	2		38720	48060
60	CG3635	1		65020	85000
61	CG13615	1		65030	54150
62	Su(P) (Suppressor of ref(2)P sterility)	1		60077	59057
63	Ets98B (Ets at 98B)	1		36790	47090
64	Gfrl (Glial cell line-derived neurotrophic family receptor-like)	1		49920	46100
65	Gfrl (Glial cell line-derived neurotrophic family receptor-like)	2		63130	72650
66	Gfrl (Glial cell line-derived neurotrophic family receptor-like)	3		44747	41143
67	Gfrl (Glial cell line-derived neurotrophic family receptor-like)	4		51920	60130
68	CG6836	1		25380	27010
69	Spn47C (Serpin 47C)	1		60880	42990
70	CG11854	1		64310	66760

In a second layout: entries from further up.
{"gene":"CG34281","reagent no.":1,"raw ATP luminescence, replicate 1":1.06e5,"raw ATP luminescence, replicate 2":83120}
{"gene":"CG3032","reagent no.":1,"raw ATP luminescence, replicate 1":42380,"raw ATP luminescence, replicate 2":48800}
{"gene":"Rcd1 (Reduction in Cnn dots 1)","reagent no.":1,"raw ATP luminescence, replicate 1":67420,"raw ATP luminescence, replicate 2":59180}
{"gene":"CG15635","reagent no.":1,"raw ATP luminescence, replicate 1":33560,"raw ATP luminescence, replicate 2":46523}
{"gene":"CG13014","reagent no.":1,"raw ATP luminescence, replicate 1":3.46e5,"raw ATP luminescence, replicate 2":2.95e5}
{"gene":"DCP2 (Decapping protein 2)","reagent no.":1,"raw ATP luminescence, replicate 1":21700,"raw ATP luminescence, replicate 2":34040}
{"gene":"Apt1 (Acyl-protein thioesterase 1)","reagent no.":1,"raw ATP luminescence, replicate 1":63823,"raw ATP luminescence, replicate 2":47663}
{"gene":"CG5342","reagent no.":1,"raw ATP luminescence, replicate 1":50200,"raw ATP luminescence, replicate 2":50603}

Additional records:
no.	gene	reagent no.	SD above plate mean	raw ATP luminescence, replicate 1	raw ATP luminescence, replicate 2
71	CG7789	1	2 to 3 SD above plate mean (active)		
72	CG6006	1		1.63e5	1.54e5
73	CG6006	2		47420	42393
74	CG11843	1		63450	48320
75	CG16820	1		99443	71567
76	CG12541	1		1.82e5	2.29e5
77	CG12541	2		42030	46770
78	CG14451	1		57700	48747
79	EMC1 (ER membrane protein complex subunit 1)	1		41247	33797
80	ScpX	1		91543	80700
81	CG12990	1		3.22e5	3.07e5
82	CG32069 + Blos2	1		46593	37700
83	Dic1	1		53003	26213
84	CG5568	1		43170	41770
85	CG13725	1		2.02e5	2.26e5
86	CG16890	1		76647	59273
87	Rrp1 (Recombination repair protein 1)	1		34087	24823
88	Ets96B	1		57090	46850
89	Shawn + Tyler	1		3.31e5	2.69e5
90	CG5909	1		68670	41460
91	Topors (Topoisomerase I-interacting protein)	1		88167	69223
92	kkv (krotzkopf verkehrt)	1		67753	29767
93	Optix	1		97817	1.18e5
94	Optix	2		57300	46847
95	CG15253	1		54903	79657
96	puml (pummelig)	1		49263	85270
97	MME1 (Mitochondrial Magnesium Exporter 1)	1		1.17e5	67893
98	CG7044	1		73490	57790
99	CG14607	1		70490	74917
100	CG3014	1		75033	63187
101	CG17612	1		1.22e5	83163
102	Cyp311a1 (Cytochrome P450 311a1)	1		3.81e5	3.69e5
103	CG34214	1		62690	53370
104	CG13403	1		3.74e5	3.38e5
105	C1GalTA (Core 1 Galactosyltransferase A)	1		82330	67267
106	Rpt4 (Regulatory particle triple-A ATPase 4)	1		33950	32420
107	Arr1 (Arrestin 1)	1		66560	1.06e5
